Measurements reported in paper PMC6495379, “Reiterative Synthesis by the Ribosome and Recognition of the N-Terminal Formyl Group by Biosynthetic Machinery Contribute to Evolutionary Conservation of the Length of Antibiotic Microcin C Peptide Precursor” (mBio, 2019).

test system: ribosomes; test: In vitro translation competition assay (reiterative translation of mccA mRNA); format: biochemical; conditions: in vitro translation at 37°C with and without 10-fold molar excess of competitor mRNA (02.MFF.Oa); from data fitting of n versus N

How did the “nrec, ribosome recycle number (peptide molecules synthesized per active ribosome before ribosome dissociation)” value turn out when “MASTAGGGMRTGNAN [A15, 15-amino-acid MccA-based peptide […]]” was run?
The value was 6.3.

How did the “nrec, ribosome recycle number (peptide molecules synthesized per active ribosome before ribosome dissociation)” value turn out when “MGGGMRTGNAN [A11, 11-amino-acid MccA-based peptide […]]” was run?
The value was 30.

For “MRTGNAN [A7, 7-amino-acid McC precursor peptide MRTGNAN, chemically synthesized]”, which “nrec, ribosome recycle number (peptide molecules synthesized per active ribosome before ribosome dissociation)” value is on record?
Its value is 71.
